Source: article PMC12109296
These are yes or no findings as the source states them, for the method shown. In cells and extracts the contact can be indirect. Some binding calls cover weakened binding; strength is not graded here. Tags and fused reporters may be left off the sequences shown.

Sequences of proteins named here, by UniProt entry; tags and fusion partners are left off.
UniProt Q9UPP1: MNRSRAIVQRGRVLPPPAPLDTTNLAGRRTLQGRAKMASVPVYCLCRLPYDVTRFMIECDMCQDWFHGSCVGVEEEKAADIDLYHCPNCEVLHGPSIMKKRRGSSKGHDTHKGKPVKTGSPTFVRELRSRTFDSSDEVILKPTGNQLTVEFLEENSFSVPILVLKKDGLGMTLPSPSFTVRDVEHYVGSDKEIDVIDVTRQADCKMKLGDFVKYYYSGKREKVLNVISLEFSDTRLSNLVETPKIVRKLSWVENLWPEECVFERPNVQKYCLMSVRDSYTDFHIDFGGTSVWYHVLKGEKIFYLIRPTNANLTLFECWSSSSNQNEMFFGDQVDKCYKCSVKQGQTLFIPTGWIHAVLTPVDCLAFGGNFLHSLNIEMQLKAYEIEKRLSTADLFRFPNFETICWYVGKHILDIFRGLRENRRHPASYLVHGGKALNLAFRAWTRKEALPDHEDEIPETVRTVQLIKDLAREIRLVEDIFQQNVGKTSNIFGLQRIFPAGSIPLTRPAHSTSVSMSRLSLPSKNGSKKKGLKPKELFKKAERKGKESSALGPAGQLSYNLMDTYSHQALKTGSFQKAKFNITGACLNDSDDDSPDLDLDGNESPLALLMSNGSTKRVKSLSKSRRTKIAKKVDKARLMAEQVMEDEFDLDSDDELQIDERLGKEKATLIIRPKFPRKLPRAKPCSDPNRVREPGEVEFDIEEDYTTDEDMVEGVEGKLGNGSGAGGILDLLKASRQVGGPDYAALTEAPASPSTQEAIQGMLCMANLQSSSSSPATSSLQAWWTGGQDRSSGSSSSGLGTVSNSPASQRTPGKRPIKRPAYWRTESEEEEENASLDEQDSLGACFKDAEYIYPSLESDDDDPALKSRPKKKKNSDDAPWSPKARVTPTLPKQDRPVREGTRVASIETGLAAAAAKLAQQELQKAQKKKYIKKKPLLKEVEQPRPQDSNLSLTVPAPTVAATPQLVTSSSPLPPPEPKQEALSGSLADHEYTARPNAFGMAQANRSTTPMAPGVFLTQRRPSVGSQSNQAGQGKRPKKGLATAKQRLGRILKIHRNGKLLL

B1: KDM2A lacking a B region (domain or fragment, UniProt Q9Y2K7-1 1-1118)
chain: MEPEEERIRYSQRLRGTMRRRYEDDGISDDEIEGKRTFDLEEKLHTNKYNANFVTFMEGKDFNVEYIQRGGLRDPLIFKNSDGLGIKMPDPDFTVNDVKMCVGSRRMVDVMDVNTQKGIEMTMAQWTRYYETPEEEREKLYNVISLEFSHTRLENMVQRPSTVDFIDWVDNMWPRHLKESQTESTNAILEMQYPKVQKYCLMSVRGCYTDFHVDFGGTSVWYHIHQGGKVFWLIPPTAHNLELYENWLLSGKQGDIFLGDRVSDCQRIELKQGYTFVIPSGWIHAVYTPTDTLVFGGNFLHSFNIPMQLKIYNIEDRTRVPNKFRYPFYYEMCWYVLERYVYCITNRSHLTKEFQKESLSMDLELNGLESGNGDEEAVDREPRRLSSRRSVLTSPVANGVNLDYDGLGKTCRSLPSLKKTLAGDSSSDCSRGSHNGQVWDPQCAPRKDRQVHLTHFELEGLRCLVDKLESLPLHKKCVPTGIEDEDALIADVKILLEELANSDPKLALTGVPIVQWPKRDKLKFPTRPKVRVPTIPITKPHTMKPAPRLTPVRPAAASPIVSGARRRRVRCRKCKACVQGECGVCHYCRDMKKFGGPGRMKQSCVLRQCLAPRLPHSVTCSLCGEVDQNEETQDFEKKLMECCICNEIVHPGCLQMDGEGLLNEELPNCWECPKCYQEDSSEKAQKRKMEESDEEAVQAKVLRPLRSCDEPLTPPPHSPTSMLQLIHDPVSPRGMVTRSSPGAGPSDHHSASRDERFKRRQLLRLQATERTMVREKENNPSGKKELSEVEKAKIRGSYLTVTLQRPTKELHGTSIVPKLQAITASSANLRHSPRVLVQHCPARTPQRGDEEGLGGEEEEEEEEEEEDDSAEEGGAARLNGRGSWAQDGDESWMQREVWMSVFRYLSRRELCECMRVCKTWYKWCCDKRLWTKIDLSRCKAIVPQALSGIIKRQPVSLDLSWTNISKKQLTWLVNRLPGLKDLLLAGCSWSAVSALSTSSCPLLRTLDLRWAVGIKDPQIRDLLTPPADKPGQDNRSKLRNMTDFRLAGLDITDATLRLIIRHMPLLSRLDLSHCSHLTDQSSNLLTAVGSSTRYSLTELNMAGCNKLTDQTLIYLRRI
B2: KDM2A (full length, amino acids 1–1162) (protein, UniProt Q9Y2K7-1 1-1162)
chain: MEPEEERIRYSQRLRGTMRRRYEDDGISDDEIEGKRTFDLEEKLHTNKYNANFVTFMEGKDFNVEYIQRGGLRDPLIFKNSDGLGIKMPDPDFTVNDVKMCVGSRRMVDVMDVNTQKGIEMTMAQWTRYYETPEEEREKLYNVISLEFSHTRLENMVQRPSTVDFIDWVDNMWPRHLKESQTESTNAILEMQYPKVQKYCLMSVRGCYTDFHVDFGGTSVWYHIHQGGKVFWLIPPTAHNLELYENWLLSGKQGDIFLGDRVSDCQRIELKQGYTFVIPSGWIHAVYTPTDTLVFGGNFLHSFNIPMQLKIYNIEDRTRVPNKFRYPFYYEMCWYVLERYVYCITNRSHLTKEFQKESLSMDLELNGLESGNGDEEAVDREPRRLSSRRSVLTSPVANGVNLDYDGLGKTCRSLPSLKKTLAGDSSSDCSRGSHNGQVWDPQCAPRKDRQVHLTHFELEGLRCLVDKLESLPLHKKCVPTGIEDEDALIADVKILLEELANSDPKLALTGVPIVQWPKRDKLKFPTRPKVRVPTIPITKPHTMKPAPRLTPVRPAAASPIVSGARRRRVRCRKCKACVQGECGVCHYCRDMKKFGGPGRMKQSCVLRQCLAPRLPHSVTCSLCGEVDQNEETQDFEKKLMECCICNEIVHPGCLQMDGEGLLNEELPNCWECPKCYQEDSSEKAQKRKMEESDEEAVQAKVLRPLRSCDEPLTPPPHSPTSMLQLIHDPVSPRGMVTRSSPGAGPSDHHSASRDERFKRRQLLRLQATERTMVREKENNPSGKKELSEVEKAKIRGSYLTVTLQRPTKELHGTSIVPKLQAITASSANLRHSPRVLVQHCPARTPQRGDEEGLGGEEEEEEEEEEEDDSAEEGGAARLNGRGSWAQDGDESWMQREVWMSVFRYLSRRELCECMRVCKTWYKWCCDKRLWTKIDLSRCKAIVPQALSGIIKRQPVSLDLSWTNISKKQLTWLVNRLPGLKDLLLAGCSWSAVSALSTSSCPLLRTLDLRWAVGIKDPQIRDLLTPPADKPGQDNRSKLRNMTDFRLAGLDITDATLRLIIRHMPLLSRLDLSHCSHLTDQSSNLLTAVGSSTRYSLTELNMAGCNKLTDQTLIYLRRIANVTLIDLRGCKQITRKACEHFISDLSINSLYCLSDEKLIQKIS
B3: GFP-KDM2A (amino acids 667–1162, d822–946) (domain or fragment, UniProt Q9Y2K7-1)
chain: PNCWECPKCYQEDSSEKAQKRKMEESDEEAVQAKVLRPLRSCDEPLTPPPHSPTSMLQLIHDPVSPRGMVTRSSPGAGPSDHHSASRDERFKRRQLLRLQATERTMVREKENNPSGKKELSEVEKAKIRGSYLTVTLQRPTKELHGTSIVPKLQASGIIKRQPVSLDLSWTNISKKQLTWLVNRLPGLKDLLLAGCSWSAVSALSTSSCPLLRTLDLRWAVGIKDPQIRDLLTPPADKPGQDNRSKLRNMTDFRLAGLDITDATLRLIIRHMPLLSRLDLSHCSHLTDQSSNLLTAVGSSTRYSLTELNMAGCNKLTDQTLIYLRRIANVTLIDLRGCKQITRKACEHFISDLSINSLYCLSDEKLIQKIS
B4: GFP-A’ region (KDM2A amino acids 667–946) (domain or fragment, UniProt Q9Y2K7-1 667-946)
chain: PNCWECPKCYQEDSSEKAQKRKMEESDEEAVQAKVLRPLRSCDEPLTPPPHSPTSMLQLIHDPVSPRGMVTRSSPGAGPSDHHSASRDERFKRRQLLRLQATERTMVREKENNPSGKKELSEVEKAKIRGSYLTVTLQRPTKELHGTSIVPKLQAITASSANLRHSPRVLVQHCPARTPQRGDEEGLGGEEEEEEEEEEEDDSAEEGGAARLNGRGSWAQDGDESWMQREVWMSVFRYLSRRELCECMRVCKTWYKWCCDKRLWTKIDLSRCKAIVPQAL
B5: GFP-KDM2A (amino acids 667–1118) (domain or fragment, UniProt Q9Y2K7-1 667-1118)
chain: PNCWECPKCYQEDSSEKAQKRKMEESDEEAVQAKVLRPLRSCDEPLTPPPHSPTSMLQLIHDPVSPRGMVTRSSPGAGPSDHHSASRDERFKRRQLLRLQATERTMVREKENNPSGKKELSEVEKAKIRGSYLTVTLQRPTKELHGTSIVPKLQAITASSANLRHSPRVLVQHCPARTPQRGDEEGLGGEEEEEEEEEEEDDSAEEGGAARLNGRGSWAQDGDESWMQREVWMSVFRYLSRRELCECMRVCKTWYKWCCDKRLWTKIDLSRCKAIVPQALSGIIKRQPVSLDLSWTNISKKQLTWLVNRLPGLKDLLLAGCSWSAVSALSTSSCPLLRTLDLRWAVGIKDPQIRDLLTPPADKPGQDNRSKLRNMTDFRLAGLDITDATLRLIIRHMPLLSRLDLSHCSHLTDQSSNLLTAVGSSTRYSLTELNMAGCNKLTDQTLIYLRRI
B6: KDM2A lacking an A region (protein, UniProt Q9Y2K7-1)
chain: MEPEEERIRYSQRLRGTMRRRYEDDGISDDEIEGKRTFDLEEKLHTNKYNANFVTFMEGKDFNVEYIQRGGLRDPLIFKNSDGLGIKMPDPDFTVNDVKMCVGSRRMVDVMDVNTQKGIEMTMAQWTRYYETPEEEREKLYNVISLEFSHTRLENMVQRPSTVDFIDWVDNMWPRHLKESQTESTNAILEMQYPKVQKYCLMSVRGCYTDFHVDFGGTSVWYHIHQGGKVFWLIPPTAHNLELYENWLLSGKQGDIFLGDRVSDCQRIELKQGYTFVIPSGWIHAVYTPTDTLVFGGNFLHSFNIPMQLKIYNIEDRTRVPNKFRYPFYYEMCWYVLERYVYCITNRSHLTKEFQKESLSMDLELNGLESGNGDEEAVDREPRRLSSRRSVLTSPVANGVNLDYDGLGKTCRSLPSLKKTLAGDSSSDCSRGSHNGQVWDPQCAPRKDRQVHLTHFELEGLRCLVDKLESLPLHKKCVPTGIEDEDALIADVKILLEELANSDPKLALTGVPIVQWPKRDKLKFPTRPKVRVPTIPITKPHTMKPAPRLTPVRPAAASPIVSGARRRRVRCRKCKACVQGECGVCHYCRDMKKFGGPGRMKQSCVLRQCLAPRLPHSVTCSLCGEVDQNEETQDFEKKLMECCICNEIVHPGCLQMDGEGLLNEELPNCWECPKCYQEDSSEKAQKRKMEESDEEAVQAKVLRPLRSCDEPLTPPPHSPTSMLQLIHDPVSPRGMVTRSSPGAGPSDHHSASRDERFKRRQLLRLQATERTMVREKENNPSGKKELSEVEKAKIRGSYLTVTLQRPTKELHGTSIVPKLQASGIIKRQPVSLDLSWTNISKKQLTWLVNRLPGLKDLLLAGCSWSAVSALSTSSCPLLRTLDLRWAVGIKDPQIRDLLTPPADKPGQDNRSKLRNMTDFRLAGLDITDATLRLIIRHMPLLSRLDLSHCSHLTDQSSNLLTAVGSSTRYSLTELNMAGCNKLTDQTLIYLRRIANVTLIDLRGCKQITRKACEHFISDLSINSLYCLSDEKLIQKIS

Each binder was assayed against Flag-tagged PHF8 (PHD finger protein 8) (UniProt Q9UPP1) (assay: co-IP; Flag-PHF8 co-expressed with KDM2A or KDM2A constructs in 293T cells; lysates in IP buffer (0.1% Triton X-100, 300 mM NaCl, 300 mM sucrose, 1 mM MgCl2, 1 mM EGTA, 10 mM PIPES pH 7.0) precipitated with anti-Flag M2 agarose; Western blot with anti-KDM2A or anti-GFP; in Figure 4A cells with or without 2 mM 2DG for 2 h).

Row | binding | Binder
1 | binds | B1
2 | binds | B2
3 | binds | B3
4 | binds | B4
5 | binds | B5
6 | binds | B6
